Reference: paper PMC7426941
No constants are given. Whether binding was seen depends on the method and setting. In cells and extracts the contact can be indirect. A yes stands for co-enrichment or nearness to the bait. Other partners may have been found.

Biological target: ABHD11 with a C-terminal HA tag (αβ-hydrolase domain-containing 11) (human)
Experiment: affinity purification with mass spectrometry; immunoprecipitated ABHD11-HA from HeLa lysate (anti-HA affinity gel) subjected to LC-MS/MS

binding: binds
B1: DLAT (dihydrolipoamide acetyltransferase) subunit of the pyruvate dehydrogenase complex (enzyme, UniProt P10515 87-647)
chain: SLPPHQKVPLPSLSPTMQAGTIARWEKKEGDKINEGDLIAEVETDKATVGFESLEECYMAKILVAEGTRDVPIGAIICITVGKPEDIEAFKNYTLDSSAAPTPQAAPAPTPAATASPPTPSAQAPGSSYPPHMQVLLPALSPTMTMGTVQRWEKKVGEKLSEGDLLAEIETDKATIGFEVQEEGYLAKILVPEGTRDVPLGTPLCIIVEKEADISAFADYRPTEVTDLKPQVPPPTPPPVAAVPPTPQPLAPTPSAPCPATPAGPKGRVFVSPLAKKLAVEKGIDLTQVKGTGPDGRITKKDIDSFVPSKVAPAPAAVVPPTGPGMAPVPTGVFTDIPISNIRRVIAQRLMQSKQTIPHYYLSIDVNMGEVLLVRKELNKILEGRSKISVNDFIIKASALACLKVPEANSSWMDTVIRQNHVVDVSVAVSTPAGLITPIVFNAHIKGVETIANDVVSLATKAREGKLQPHEFQGGTFTISNLGMFGIKNFSAIINPPQACILAIGASEDKLVPADNEKGFDVASMMSVTLSCDHRVVDGAVGAQWLAEFRKYLEKPITMLL
modifications: lipoylated (sites not given)
